Test [1] deals with T1, full-length iNOS protein (endogenous, from LPS/IFNγ-treated mouse bone marrow-derived macrophages) (mouse) (UniProt P29477).
T1 sequence: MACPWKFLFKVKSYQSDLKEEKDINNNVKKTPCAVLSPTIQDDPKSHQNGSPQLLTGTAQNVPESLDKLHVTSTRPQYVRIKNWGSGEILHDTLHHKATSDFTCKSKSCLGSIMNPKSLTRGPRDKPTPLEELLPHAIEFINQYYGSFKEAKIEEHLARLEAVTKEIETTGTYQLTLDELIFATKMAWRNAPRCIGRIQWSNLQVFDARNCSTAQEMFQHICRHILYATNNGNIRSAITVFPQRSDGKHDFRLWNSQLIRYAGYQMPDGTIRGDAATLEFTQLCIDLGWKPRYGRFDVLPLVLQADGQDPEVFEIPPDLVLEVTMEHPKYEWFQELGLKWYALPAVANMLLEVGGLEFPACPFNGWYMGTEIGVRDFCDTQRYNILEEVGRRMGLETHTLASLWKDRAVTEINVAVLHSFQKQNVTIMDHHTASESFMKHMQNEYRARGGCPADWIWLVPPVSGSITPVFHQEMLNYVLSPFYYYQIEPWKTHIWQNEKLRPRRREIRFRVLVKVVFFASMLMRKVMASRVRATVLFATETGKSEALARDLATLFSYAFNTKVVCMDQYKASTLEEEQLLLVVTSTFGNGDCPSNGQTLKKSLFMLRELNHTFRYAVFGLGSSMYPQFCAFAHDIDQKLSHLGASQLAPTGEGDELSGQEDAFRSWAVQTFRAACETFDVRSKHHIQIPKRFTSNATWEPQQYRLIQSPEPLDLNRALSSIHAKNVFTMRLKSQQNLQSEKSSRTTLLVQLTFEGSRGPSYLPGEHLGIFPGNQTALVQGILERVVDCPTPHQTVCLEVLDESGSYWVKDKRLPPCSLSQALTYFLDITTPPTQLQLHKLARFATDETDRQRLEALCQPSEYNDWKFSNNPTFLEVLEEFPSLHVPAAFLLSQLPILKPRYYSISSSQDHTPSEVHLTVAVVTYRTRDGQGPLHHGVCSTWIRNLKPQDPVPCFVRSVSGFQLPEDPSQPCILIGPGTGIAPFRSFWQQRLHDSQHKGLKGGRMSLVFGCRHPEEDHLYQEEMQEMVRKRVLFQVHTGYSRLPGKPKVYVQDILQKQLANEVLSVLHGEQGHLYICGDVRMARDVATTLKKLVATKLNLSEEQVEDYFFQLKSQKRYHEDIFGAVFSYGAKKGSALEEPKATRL
Description: anti-Flag co-immunoprecipitation, Western blot (FIG. 6A). On the technique in general: A western blot detects proteins with antibodies after separation by electrophoresis.

The chains behind the UniProt entries cited, without tags or fusion partners. Where a name states a change or a piece, a line headed by the entry shows the natural chain unless it says otherwise.
UniProt O88838: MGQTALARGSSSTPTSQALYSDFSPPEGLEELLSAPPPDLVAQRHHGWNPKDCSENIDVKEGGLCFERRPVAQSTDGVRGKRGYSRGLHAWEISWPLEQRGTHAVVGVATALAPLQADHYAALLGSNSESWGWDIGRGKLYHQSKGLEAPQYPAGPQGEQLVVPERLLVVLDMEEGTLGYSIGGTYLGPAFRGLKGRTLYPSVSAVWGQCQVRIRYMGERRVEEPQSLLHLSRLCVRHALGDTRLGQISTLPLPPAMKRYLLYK
UniProt Q8R5B6: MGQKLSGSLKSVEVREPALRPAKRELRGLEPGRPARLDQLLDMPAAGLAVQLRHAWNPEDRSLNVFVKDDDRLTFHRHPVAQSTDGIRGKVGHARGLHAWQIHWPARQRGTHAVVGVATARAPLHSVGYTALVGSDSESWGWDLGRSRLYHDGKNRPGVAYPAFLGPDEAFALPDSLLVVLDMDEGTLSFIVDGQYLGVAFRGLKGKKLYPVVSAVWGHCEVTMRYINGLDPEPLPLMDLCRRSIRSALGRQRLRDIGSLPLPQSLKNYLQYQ

The target of test [2] is T1, full-length iNOS protein (endogenous, from LPS/IFNγ-treated mouse bone marrow-derived macrophages) (mouse). Description: anti-Flag co-immunoprecipitation from mixed 293T and BMDM lysates, anti-iNOS Western blot.
Test [3] has the same target. Nature of the test: anti-Flag co-immunoprecipitation, anti-iNOS Western blot.
Test [4] shares this target. Nature of the test: pull-down from BMDM lysate, Western blot (FIG. 5A).
Test [5] shares this target. Nature of the test: pull-down from BMDM lysate with SSB-2ΔSB coupled to Sepharose, anti-iNOS Western blot.

Results are given in words; binding and its absence hold for the method and conditions named. Binding seen in cells or lysates may run through a third protein. Some binding calls cover weakened binding; strength is not graded here.

On to “Flag-tagged SSB-2 (murine, wild-type, expressed in 293T cells) (from UniProt O88838 1-264)”, for which the binding result in test [1] and in test [2] was “binds” throughout. In the case of “Flag-tagged SSB-2 mutant D118/H119 (from UniProt O88838 1-264)”, in test [3], the binding entry is recorded as “binds”. Same read-out and setting: then “Flag-tagged SSB-2 mutant Q160/L161 (from UniProt O88838 1-264)”, with “binds”. In the case of “Flag-tagged SSB-4 (murine, expressed in 293T cells) (from UniProt Q8R5B6 1-273)”, the binding entry in test [1] and in test [2] was “binds” throughout. For the substance “SSB-2ΔSB (recombinant murine SSB-2 SPRY domain, residues 12-224) (from UniProt O88838 12-224)”, the binding entry in test [4] and in test [5] was “binds” in each case.

The values are drawn from patent US20120308570A1, “METHODS FOR TREATING DISEASES” (priority 2009, published 2012).
